From the supplement of paper PMC10849652
The list shows a part of the results.

Amino acid sequences for entries named in this document (tags omitted). A change or cut given only in a name is not applied to a line headed by its entry.
UniProt Q9H019: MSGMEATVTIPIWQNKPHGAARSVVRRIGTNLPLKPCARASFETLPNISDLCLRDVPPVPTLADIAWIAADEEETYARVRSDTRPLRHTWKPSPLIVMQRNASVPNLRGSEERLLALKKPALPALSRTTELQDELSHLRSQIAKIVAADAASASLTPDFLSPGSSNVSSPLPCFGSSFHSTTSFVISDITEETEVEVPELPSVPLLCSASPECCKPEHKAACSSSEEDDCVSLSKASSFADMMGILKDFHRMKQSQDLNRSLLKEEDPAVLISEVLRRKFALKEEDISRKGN
UniProt P03915, whole entry, looked up: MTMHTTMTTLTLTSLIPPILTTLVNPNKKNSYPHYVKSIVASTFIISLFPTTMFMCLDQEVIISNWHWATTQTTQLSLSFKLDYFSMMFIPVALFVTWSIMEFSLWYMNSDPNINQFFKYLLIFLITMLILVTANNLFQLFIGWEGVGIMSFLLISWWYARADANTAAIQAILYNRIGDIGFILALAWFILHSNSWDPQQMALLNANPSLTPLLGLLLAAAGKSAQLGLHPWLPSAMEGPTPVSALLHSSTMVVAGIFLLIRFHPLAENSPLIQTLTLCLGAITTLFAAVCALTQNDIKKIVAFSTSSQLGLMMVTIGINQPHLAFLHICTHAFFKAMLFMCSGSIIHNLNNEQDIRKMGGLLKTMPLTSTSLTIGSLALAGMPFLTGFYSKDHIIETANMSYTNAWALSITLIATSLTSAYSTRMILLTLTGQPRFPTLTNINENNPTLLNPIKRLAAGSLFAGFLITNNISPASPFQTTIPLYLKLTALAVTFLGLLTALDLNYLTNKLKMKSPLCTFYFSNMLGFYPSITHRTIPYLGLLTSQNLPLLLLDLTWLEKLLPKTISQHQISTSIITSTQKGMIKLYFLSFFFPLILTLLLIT
UniProt Q68DK7: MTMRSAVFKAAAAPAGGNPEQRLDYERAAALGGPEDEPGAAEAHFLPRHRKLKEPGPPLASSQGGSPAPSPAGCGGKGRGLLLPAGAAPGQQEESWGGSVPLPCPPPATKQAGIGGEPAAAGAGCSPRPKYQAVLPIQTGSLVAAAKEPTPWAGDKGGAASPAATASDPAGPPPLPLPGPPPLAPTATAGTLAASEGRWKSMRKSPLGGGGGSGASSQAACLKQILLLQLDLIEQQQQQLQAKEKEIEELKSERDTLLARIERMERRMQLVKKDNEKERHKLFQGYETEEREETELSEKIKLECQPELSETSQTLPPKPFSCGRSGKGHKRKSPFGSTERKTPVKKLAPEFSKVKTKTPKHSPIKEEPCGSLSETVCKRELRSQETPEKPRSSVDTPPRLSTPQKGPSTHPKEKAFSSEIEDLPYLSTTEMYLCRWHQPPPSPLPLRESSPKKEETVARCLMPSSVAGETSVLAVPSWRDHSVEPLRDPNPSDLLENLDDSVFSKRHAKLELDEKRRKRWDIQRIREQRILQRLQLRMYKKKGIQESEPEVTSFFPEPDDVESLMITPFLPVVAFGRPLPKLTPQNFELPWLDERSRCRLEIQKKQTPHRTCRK
UniProt Q9UDX5: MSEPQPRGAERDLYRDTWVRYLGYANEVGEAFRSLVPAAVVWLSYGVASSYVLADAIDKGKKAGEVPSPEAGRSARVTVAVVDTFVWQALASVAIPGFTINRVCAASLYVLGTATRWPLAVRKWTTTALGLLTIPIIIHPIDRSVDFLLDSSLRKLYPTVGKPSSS
UniProt P20585: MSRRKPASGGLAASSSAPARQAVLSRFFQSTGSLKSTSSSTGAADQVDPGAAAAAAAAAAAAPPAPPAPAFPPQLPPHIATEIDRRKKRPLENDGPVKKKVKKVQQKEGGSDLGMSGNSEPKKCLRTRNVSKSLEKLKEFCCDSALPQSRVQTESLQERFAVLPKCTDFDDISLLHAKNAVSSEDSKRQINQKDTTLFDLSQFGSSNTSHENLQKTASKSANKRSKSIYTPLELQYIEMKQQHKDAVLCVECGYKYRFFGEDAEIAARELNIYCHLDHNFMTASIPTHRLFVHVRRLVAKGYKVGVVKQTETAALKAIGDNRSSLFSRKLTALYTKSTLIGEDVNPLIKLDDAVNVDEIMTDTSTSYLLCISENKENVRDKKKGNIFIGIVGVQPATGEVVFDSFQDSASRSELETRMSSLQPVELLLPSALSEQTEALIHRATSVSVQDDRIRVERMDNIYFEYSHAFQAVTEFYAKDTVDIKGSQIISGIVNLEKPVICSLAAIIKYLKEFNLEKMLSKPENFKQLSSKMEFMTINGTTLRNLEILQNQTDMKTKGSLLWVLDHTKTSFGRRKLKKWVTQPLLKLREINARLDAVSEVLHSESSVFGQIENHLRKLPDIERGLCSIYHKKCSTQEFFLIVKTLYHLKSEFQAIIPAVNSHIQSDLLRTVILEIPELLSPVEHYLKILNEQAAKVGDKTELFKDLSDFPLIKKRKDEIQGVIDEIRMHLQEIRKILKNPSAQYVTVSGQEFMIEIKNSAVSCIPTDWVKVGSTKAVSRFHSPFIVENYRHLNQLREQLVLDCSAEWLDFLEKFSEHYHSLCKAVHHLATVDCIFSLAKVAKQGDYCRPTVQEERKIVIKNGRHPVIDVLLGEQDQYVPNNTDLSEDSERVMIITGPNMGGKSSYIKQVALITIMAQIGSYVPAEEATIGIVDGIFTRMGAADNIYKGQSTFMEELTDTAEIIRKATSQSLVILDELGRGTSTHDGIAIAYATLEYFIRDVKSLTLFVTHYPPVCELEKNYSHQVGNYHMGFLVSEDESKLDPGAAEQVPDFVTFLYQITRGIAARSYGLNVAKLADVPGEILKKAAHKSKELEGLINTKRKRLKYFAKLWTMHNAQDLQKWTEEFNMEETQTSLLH
UniProt P13995: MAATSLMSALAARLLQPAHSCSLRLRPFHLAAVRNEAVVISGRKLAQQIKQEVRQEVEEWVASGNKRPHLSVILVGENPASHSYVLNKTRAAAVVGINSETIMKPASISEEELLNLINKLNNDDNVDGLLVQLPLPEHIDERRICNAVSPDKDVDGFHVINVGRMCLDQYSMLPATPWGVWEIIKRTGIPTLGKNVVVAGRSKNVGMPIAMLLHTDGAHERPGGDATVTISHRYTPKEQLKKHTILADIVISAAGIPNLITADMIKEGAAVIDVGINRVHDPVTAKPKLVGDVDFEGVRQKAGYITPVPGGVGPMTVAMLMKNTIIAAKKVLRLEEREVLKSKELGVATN
UniProt O15457: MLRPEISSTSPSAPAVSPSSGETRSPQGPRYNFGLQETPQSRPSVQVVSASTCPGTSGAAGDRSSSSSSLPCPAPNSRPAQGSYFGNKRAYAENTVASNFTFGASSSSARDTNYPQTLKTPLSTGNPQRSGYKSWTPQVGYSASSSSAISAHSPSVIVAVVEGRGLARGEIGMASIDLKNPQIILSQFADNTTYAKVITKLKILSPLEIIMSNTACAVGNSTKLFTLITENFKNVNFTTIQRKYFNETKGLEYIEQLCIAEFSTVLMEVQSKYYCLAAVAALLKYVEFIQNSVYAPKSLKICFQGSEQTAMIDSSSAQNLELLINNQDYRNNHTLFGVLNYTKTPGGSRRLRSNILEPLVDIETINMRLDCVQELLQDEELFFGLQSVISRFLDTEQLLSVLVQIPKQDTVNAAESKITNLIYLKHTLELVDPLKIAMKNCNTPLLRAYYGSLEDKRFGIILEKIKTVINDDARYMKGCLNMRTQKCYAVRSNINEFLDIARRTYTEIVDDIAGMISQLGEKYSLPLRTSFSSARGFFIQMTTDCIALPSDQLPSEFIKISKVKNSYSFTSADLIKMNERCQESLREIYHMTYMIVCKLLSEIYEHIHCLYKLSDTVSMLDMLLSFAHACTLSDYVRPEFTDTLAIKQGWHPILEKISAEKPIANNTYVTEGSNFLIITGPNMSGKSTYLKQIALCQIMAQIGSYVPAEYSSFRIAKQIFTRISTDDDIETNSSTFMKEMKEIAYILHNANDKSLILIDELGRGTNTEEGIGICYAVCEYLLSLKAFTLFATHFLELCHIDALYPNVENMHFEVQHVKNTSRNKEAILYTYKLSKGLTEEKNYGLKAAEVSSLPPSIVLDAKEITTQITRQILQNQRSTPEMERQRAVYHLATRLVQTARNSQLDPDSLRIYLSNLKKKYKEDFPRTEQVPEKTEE
UniProt Q9NXD2: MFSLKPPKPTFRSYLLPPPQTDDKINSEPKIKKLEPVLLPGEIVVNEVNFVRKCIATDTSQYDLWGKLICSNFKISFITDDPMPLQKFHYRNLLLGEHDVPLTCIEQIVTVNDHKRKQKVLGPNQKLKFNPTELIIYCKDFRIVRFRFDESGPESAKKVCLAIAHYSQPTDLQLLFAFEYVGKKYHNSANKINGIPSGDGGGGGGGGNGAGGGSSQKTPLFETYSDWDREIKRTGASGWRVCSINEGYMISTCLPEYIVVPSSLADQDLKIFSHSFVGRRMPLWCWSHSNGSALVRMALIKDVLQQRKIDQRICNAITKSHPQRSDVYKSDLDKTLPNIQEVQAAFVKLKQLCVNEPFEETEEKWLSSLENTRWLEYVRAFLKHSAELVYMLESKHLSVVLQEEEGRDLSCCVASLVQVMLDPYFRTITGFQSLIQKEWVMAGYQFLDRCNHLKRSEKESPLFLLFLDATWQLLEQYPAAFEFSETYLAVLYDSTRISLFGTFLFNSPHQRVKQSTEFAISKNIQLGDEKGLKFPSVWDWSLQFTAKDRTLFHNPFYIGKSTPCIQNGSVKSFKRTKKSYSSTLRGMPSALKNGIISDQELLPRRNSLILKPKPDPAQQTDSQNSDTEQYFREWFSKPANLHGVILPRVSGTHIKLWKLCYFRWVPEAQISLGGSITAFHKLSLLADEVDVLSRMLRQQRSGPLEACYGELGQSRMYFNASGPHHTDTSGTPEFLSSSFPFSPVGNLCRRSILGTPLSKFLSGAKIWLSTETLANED

How the values were obtained:
Experiment in all cases: log2 fold change, soluble protein after heating vs DMSO (PISA); higher = thermal stabilisation; K562 lysate, 10 uM; active = over 0.2 and 3.5 SD of the protein, either way, in both replicates (recomputed)
vemurafenib = compound: CCCS(=O)(=O)Nc1ccc(F)c(C(=O)c2c[nH]c3ncc(-c4ccc(Cl)cc4)cc23)c1F [vemurafenib]
Outline: (§1)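 Values give the log-two fold change in thermal stability against solvent controls, from duplicates. Crude K562 extract at 1 mg/mL protein, made by dounce homogenisation in PBS pH 7.4 with 1 mM MgCl2, was treated with 10 μM compound for 30 min. After 3 min heating across 48°C-58°C, aliquots were pooled, adjusted to 0.5% NP-40 at 4°C and centrifuged at 21,000xg for 90 min. The supernatant was measured by TMTpro 16plex LC-MS/MS with channel sums equalised.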

[1] = compound: CCCS(=O)(=O)Nc1ccc(F)c(C(=O)c2c[nH]c3ncc(Cl)cc23)c1F
Outline: as §1

barasertib = compound: CCN(CCCOc1ccc2c(Nc3cc(CC(=O)Nc4cccc(F)c4)[nH]n3)ncnc2c1)CCOP(=O)(O)O [barasertib]
Outline: as §1

[2] = compound: CC[C@@H]1C(=O)N(C)c2cnc(Nc3ccc(C(=O)NC4CCN(C)CC4)cc3OC)nc2N1C1CCCC1
Outline: as §1

volasertib = compound: CC[C@@H]1C(=O)N(C)c2cnc(Nc3ccc(C(=O)N[C@H]4CC[C@H](N5CCN(CC6CC6)CC5)CC4)cc3OC)nc2N1C(C)C [volasertib]
Outline: as §1

[3] = compound: CCn1c(C(=O)N(C2CC2)C2CC2)cc2c3c(ncn3C)c(Nc3cc(C)n(C)n3)nc21
Outline: as §1

[4] = compound: CCn1cc(-c2ccnc3[nH]c(-c4cccc(CN(C)C)c4)cc23)c(-c2ccc(NC(=O)N(C)C)cc2)n1
Outline: as §1

[5] = compound: CN1CCC(CNc2ccc3ncc(-c4cccc(OC(F)(F)F)c4)n3n2)CC1
Outline: as §1

saracatinib = compound: CN1CCN(CCOc2cc(OC3CCOCC3)c3c(Nc4c(Cl)ccc5c4OCO5)ncnc3c2)CC1 [saracatinib]
Outline: as §1

sotrastaurin = compound: CN1CCN(c2nc(C3=C(c4c[nH]c5ccccc45)C(=O)NC3=O)c3ccccc3n2)CC1 [sotrastaurin]
Outline: as §1

alvocidib = compound: CN1CC[C@H](c2c(O)cc(O)c3c(=O)cc(-c4ccccc4Cl)oc23)[C@H](O)C1 [alvocidib]
Outline: as §1

Tubastatin A = compound: CN1CCc2c(c3ccccc3n2Cc2ccc(C(=O)NO)cc2)C1 [Tubastatin A]
Outline: as §1

[6] = compound: CNC(=O)C1=CC=CC=C1NC2=NC(=NC=C2Cl)NC3=C(C=C(C=C3)N4CCOCC4)OC
Outline: as §1

defactinib = compound: CNC(=O)c1ccc(Nc2ncc(C(F)(F)F)c(NCc3nccnc3N(C)S(C)(=O)=O)n2)cc1 [defactinib]
Outline: as §1

[7] = compound: CNc1nc(-c2ccc3c(N)n[nH]c3c2)cc(N2C[C@@H](C(=O)NC3CCCCC3)CC[C@H]2C)n1
Outline: as §1

encorafenib = compound: COC(=O)N[C@@H](C)CNc1nccc(-c2cn(C(C)C)nc2-c2cc(Cl)cc(NS(C)(=O)=O)c2F)n1 [encorafenib]
Outline: as §1

[8] = compound: COC(=O)[C@H](CCSC)NC(=O)C1=C(C=C(C=C1)NC[C@H](CS)N)C2=CC=CC=C2
Outline: as §1

alisertib = compound: COc1cc(Nc2ncc3c(n2)-c2ccc(Cl)cc2C(c2c(F)cccc2OC)=NC3)ccc1C(=O)O [alisertib]
Outline: as §1

[9] = compound: COc1cc2nc(-c3cc(F)ccc3O)nc(N[C@@H]3CNC[C@H]3C(C)(C)O)c2cc1OC
Outline: as §1

gefitinib = compound: COc1cc2ncnc(Nc3ccc(F)c(Cl)c3)c2cc1OCCCN1CCOCC1 [gefitinib]
Outline: as §1

Measured: log2 fold change

MRPL4 (UniProt Q9BYD3)
inactive: vemurafenib 0.022 | [1] 0.004 | barasertib -0.064 | [2] 0.057 | volasertib 0.037 | [3] -0.007 | [4] 0.176 | [5] -0.021 | saracatinib -0.014 | sotrastaurin -0.017 | alvocidib 0.045 | Tubastatin A 0.004 | [6] -0.028 | defactinib 0.036 | [7] 0.039 | encorafenib 0.068 | [8] -0.041 | alisertib 0.027 | [9] -0.055 | gefitinib -0.053

MRPL48 (UniProt Q96GC5)
inactive: vemurafenib -0.025 | [1] -0.003 | barasertib -0.03 | [2] -0.039 | volasertib -0.012 | [3] 0.009 | [4] -0.028 | [5] -0.179 | saracatinib 0.019 | sotrastaurin 0.006 | alvocidib 0.068 | Tubastatin A -0.058 | [6] -0.014 | defactinib 0.006 | [7] -0.017 | encorafenib 0.003 | [8] 0.052 | alisertib -0.02 | [9] -0.065 | gefitinib 0

MTFR1L (UniProt Q9H019)
inactive: vemurafenib 0.019 | [1] 0.023 | barasertib -0.078 | [2] 0.062 | volasertib -0.066 | [3] 0.049 | [4] -0.184 | [5] 0.084 | saracatinib 0.028 | sotrastaurin 0.016 | alvocidib -0.046 | Tubastatin A -0.237 | [6] 0.081 | defactinib -0.05 | [7] 0.032 | encorafenib -0.021 | [8] 0.009 | alisertib 0.022 | [9] -0.068 | gefitinib -0.039

MRPS10 (UniProt P82664)
inactive: vemurafenib 0.05 | [1] -0.005 | barasertib -0.019 | [2] 0.025 | volasertib 0.004 | [3] -0.042 | [4] -0.193 | [5] 0.04 | saracatinib 0.033 | sotrastaurin -0.007 | alvocidib -0.005 | Tubastatin A 0.003 | [6] 0.027 | defactinib -0.008 | [7] 0.041 | encorafenib 0.018 | [8] 0.022 | alisertib 0.101 | [9] -0.061 | gefitinib -0.02

MT-ND5 (UniProt P03915)
inactive: vemurafenib -0.064 | [1] 0.001 | barasertib -0.124 | [2] 0.01 | volasertib 0.013 | [3] 0.019 | [4] 0.11 | [5] -0.044 | saracatinib 0.096 | sotrastaurin 0.022 | alvocidib -0.033 | Tubastatin A 0.132 | [6] 0.045 | defactinib 0.059 | [7] 0.109 | encorafenib 0.01 | [8] -0.022 | alisertib 0.024 | [9] 0.008 | gefitinib -0.079

MSL1 (UniProt Q68DK7)
inactive: vemurafenib 0.088 | [1] -0.012 | barasertib -0.06 | [2] -0.065 | volasertib 0.062 | [3] -0.169 | [4] -0.174 | [5] 0.093 | saracatinib -0.018 | sotrastaurin 0.048 | alvocidib -0.115 | Tubastatin A 0.109 | [6] -0.018 | defactinib -0.144 | [7] 0.107 | encorafenib 0.161 | [8] 0.094 | alisertib 0.021 | [9] 0.104 | gefitinib 0.03

MTFP1 (UniProt Q9UDX5)
inactive: vemurafenib -0.025 | [1] 0.031 | barasertib 0.012 | [2] 0.036 | volasertib 0.041 | [3] 0.061 | [5] 0.041 | saracatinib -0.042 | sotrastaurin 0.004 | alvocidib -0.087 | Tubastatin A -0.006 | [6] 0.053 | defactinib 0.145 | [7] 0.007 | encorafenib -0.037 | [8] 0.102 | alisertib -0.032 | [9] 0.003 | gefitinib -0.011
active: [4] -0.421

MSH3 (UniProt P20585)
inactive: vemurafenib -0.004 | [1] 0.048 | barasertib -0.001 | [2] 0.036 | volasertib -0.031 | [3] -0.034 | [4] -0.025 | [5] 0.031 | saracatinib 0.038 | sotrastaurin 0.039 | alvocidib 0.021 | Tubastatin A -0.004 | [6] 0.008 | defactinib 0.023 | [7] 0.057 | encorafenib 0.02 | [8] -0.013 | alisertib -0.027 | [9] 0.006 | gefitinib -0.012

Taken from the entries so far (two entries):
MRPL48 (UniProt Q96GC5)
inactive: vemurafenib -0.025 | [1] -0.003 | barasertib -0.03 | [2] -0.039 | volasertib -0.012 | [3] 0.009 | [4] -0.028 | [5] -0.179 | saracatinib 0.019 | sotrastaurin 0.006 | alvocidib 0.068 | Tubastatin A -0.058 | [6] -0.014 | defactinib 0.006 | [7] -0.017 | encorafenib 0.003 | [8] 0.052 | alisertib -0.02 | [9] -0.065 | gefitinib 0

MTFR1L (UniProt Q9H019)
inactive: vemurafenib 0.019 | [1] 0.023 | barasertib -0.078 | [2] 0.062 | volasertib -0.066 | [3] 0.049 | [4] -0.184 | [5] 0.084 | saracatinib 0.028 | sotrastaurin 0.016 | alvocidib -0.046 | Tubastatin A -0.237 | [6] 0.081 | defactinib -0.05 | [7] 0.032 | encorafenib -0.021 | [8] 0.009 | alisertib 0.022 | [9] -0.068 | gefitinib -0.039

The listing continues.

MRPL57 (UniProt Q9BQC6)
inactive: vemurafenib 0.032 | [1] -0.007 | barasertib -0.007 | [2] -0.017 | volasertib -0.039 | [3] -0.04 | [4] 0.014 | [5] -0.048 | saracatinib 0.042 | sotrastaurin -0.027 | alvocidib 0.006 | Tubastatin A 0.069 | [6] -0.077 | defactinib -0.115 | [7] 0.14 | encorafenib 0.02 | [8] 0.123 | alisertib -0.012 | [9] 0.002 | gefitinib -0.034

MRPS28 (UniProt Q9Y2Q9)
inactive: vemurafenib -0.039 | [1] -0.039 | barasertib -0.02 | [2] -0.015 | volasertib 0.004 | [3] 0.017 | [4] 0.154 | [5] -0.08 | saracatinib -0.011 | sotrastaurin 0.013 | alvocidib 0.038 | Tubastatin A 0.029 | [6] 0.028 | defactinib 0.015 | [7] -0.057 | encorafenib 0.036 | [8] -0.086 | alisertib -0.012 | [9] -0.013 | gefitinib -0.003

MTHFD2 (UniProt P13995)
inactive: vemurafenib -0.023 | [1] -0.008 | barasertib -0.047 | [2] -0.044 | volasertib -0.014 | [3] 0.034 | [4] 0.007 | [5] -0.029 | saracatinib -0.008 | sotrastaurin 0.015 | alvocidib -0.037 | Tubastatin A 0.004 | [6] -0.022 | defactinib 0.041 | [7] -0.046 | encorafenib -0.023 | [8] 0.031 | alisertib 0.031 | [9] -0.007 | gefitinib 0.012

MRPS22 (UniProt P82650)
inactive: vemurafenib 0.077 | [1] 0.06 | barasertib 0.068 | [2] -0.056 | volasertib -0.038 | [3] -0.015 | [4] 0.013 | [5] -0.074 | saracatinib 0.006 | sotrastaurin 0.069 | alvocidib 0.006 | Tubastatin A -0.04 | [6] -0.005 | defactinib 0.003 | [7] 0.038 | encorafenib 0.04 | [8] 0.074 | alisertib -0.067 | [9] -0.017 | gefitinib -0.12

MUC1, A0A087WWM1
inactive: vemurafenib 0.067 | [1] 0.038 | barasertib -0.013 | [2] 0.015 | volasertib 0.033 | [3] -0.031 | [4] -0.004 | [5] -0.029 | saracatinib 0.115 | sotrastaurin 0.063 | alvocidib -0.005 | Tubastatin A -0.019 | [6] -0.009 | defactinib 0.004 | [7] -0.046 | encorafenib -0.039 | [8] 0.008 | alisertib -0.05 | [9] 0.04 | gefitinib -0.01

MUC19 (UniProt Q7Z5P9)
inactive: [1] -0.083 | barasertib -0.085 | volasertib -0.024 | [3] -0.114 | [4] 0.094 | [5] 0.013 | alvocidib 0.035 | Tubastatin A 0.082 | [9] 0.019

MSH4 (UniProt O15457)
inactive: vemurafenib -0.145 | [3] 0.133 | [4] -0.345 | [5] 0.142 | alvocidib -0.021 | Tubastatin A -0.05 | defactinib 0.271

MTMR10 (UniProt Q9NXD2)
inactive: [1] 0.002 | volasertib -0.072 | [3] -0.094 | saracatinib 0.049 | sotrastaurin -0.185 | Tubastatin A 0.116 | [6] -0.01 | [7] -0.068 | alisertib 0.029 | [9] 0 | gefitinib 0.1

MTHFD1 (UniProt V9GZ32)
inactive: [1] 0.008 | volasertib -0.145 | alisertib 0.108 | [9] 0 | gefitinib -0.073

MTURN (UniProt Q8N3F0)
inactive: [2] 0.06 | [3] 0.045 | saracatinib -0.045 | sotrastaurin 0.017 | Tubastatin A -0.048 | [7] 0.003 | encorafenib 0.021 | [8] -0.033
